{
  "sequences": {"note": "Chains of the proteins cited; added tags and fusions are not shown.", "UniProt P61169": "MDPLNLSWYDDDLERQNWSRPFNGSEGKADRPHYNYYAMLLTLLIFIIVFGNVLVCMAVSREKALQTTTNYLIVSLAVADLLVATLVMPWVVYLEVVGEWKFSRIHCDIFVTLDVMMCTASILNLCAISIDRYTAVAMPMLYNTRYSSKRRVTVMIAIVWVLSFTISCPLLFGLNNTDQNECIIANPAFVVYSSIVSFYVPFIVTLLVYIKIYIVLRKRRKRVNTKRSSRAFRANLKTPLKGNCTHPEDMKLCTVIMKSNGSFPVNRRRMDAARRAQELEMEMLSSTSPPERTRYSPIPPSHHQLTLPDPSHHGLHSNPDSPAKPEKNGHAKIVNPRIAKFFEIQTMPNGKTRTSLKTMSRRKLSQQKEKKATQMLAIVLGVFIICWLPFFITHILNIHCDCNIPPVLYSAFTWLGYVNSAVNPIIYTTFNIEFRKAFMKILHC", "UniProt P18901": "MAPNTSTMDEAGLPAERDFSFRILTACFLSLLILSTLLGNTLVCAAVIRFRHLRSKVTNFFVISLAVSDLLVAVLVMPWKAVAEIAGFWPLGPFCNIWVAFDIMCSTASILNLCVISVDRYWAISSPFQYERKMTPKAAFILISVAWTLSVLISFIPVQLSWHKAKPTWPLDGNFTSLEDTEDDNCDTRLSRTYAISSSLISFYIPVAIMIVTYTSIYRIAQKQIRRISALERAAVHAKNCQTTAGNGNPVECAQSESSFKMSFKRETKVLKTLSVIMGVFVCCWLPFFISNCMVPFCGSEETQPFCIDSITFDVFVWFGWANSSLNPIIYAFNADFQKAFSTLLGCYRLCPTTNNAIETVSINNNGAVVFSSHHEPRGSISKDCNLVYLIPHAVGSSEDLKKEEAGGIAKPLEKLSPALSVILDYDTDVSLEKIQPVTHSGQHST"},
  "source": "paper PMC7035642",
  "key": {"[1]": {"biological_target": "dopamine D2 receptor (rat (endogenous in Sprague-Dawley rat striatum)) (UniProt P61169)", "test": "proximity ligation; in situ PLA on coronal slices from rat brain (25 um) or monkey (30 um); anti-D1R PLUS and anti-D2R MINUS probes (Duolink); confocal microscopy; male and female animals"}, "[2]": {"biological_target": "dopamine D2 receptor (rat (endogenous in Sprague-Dawley rat striatum)) (UniProt P61169)", "test": "co-IP; protein homogenates (250-300 ug) from rat NAc or CPu of male and female rats, anti-D2R antibody at 4 °C overnight, protein G/A, 3 washes with PBS-Tween; Western blot with anti-D1R antibody"}},
  "note": "Results are given in words; binding and its absence hold for the method and conditions named. Binding seen in cells or lysates may run through a third protein. Some entries that bind do so weakly or less than the wild type.",
  "data": [
    {"substance": "dopamine D1 receptor (from UniProt P18901 1-446)", "values": [
      {"measurement": "binding", "setting": "[1]", "value": "binds"},
      {"measurement": "binding", "setting": "[2]", "value": "binds"}
    ]}
  ]
}
